Hit rate of the full screen: of about 340,000 compounds, about 170 (0.05%) were called active. This list was built around the results that the source calls inconclusive (neither active nor inactive); the mix of calls is not that of the screen. Calls follow the shape of the dose curve; as a rule, active = well fitted inhibition curve with a large enough effect in the signal ratio, with a control signal flat (not every such curve was filed as active); inconclusive = small, poorly fitted or top-dose-only effect, or effect the other way, or a change in a side signal; inactive = flat fitted curve, though single readings scatter; the % refers to the signal ratio. Potencies of inconclusive entries are doubtful fits and often do not repeat.
Assay: qHTS Assay to Find Inhibitors of Chronic Active B-Cell Receptor Signaling;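 as to activity change, negative = inhibition: plate controls were basal doxycycline-induced cells for no effect and cells given 10 µM MG132 for full effect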
Conditions: ABC-DLBCL IkBa-CBG/CBR reporter, luminescence ratio (green luciferase fused to IkBa over red control in TMD8 lymphoma cells), 4 h; activity change, negative = inhibition: at 46.1 µM (top of the series)
In short: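 Doxycycline induced both beetle luciferases in TMD8 lymphoma cells; IKK-driven degradation limits the IkappaBalpha-fused green signal, while red luminescence normalises for cell number and nonspecific effects. Compounds tested up to 46 uM, 4 hrs.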
For `Cc1ccc(-n2nc(C)c(Sc3ccccc3[N+](=O)[O-])c2N)cc1`, the activity change, negative = inhibition was inconclusive: -12.7%.
For `CCOc1ncccc1C(=O)NCc1ccc(OC)cc1`, the activity change, negative = inhibition was inconclusive: 8.08%.
With `CCOC(=O)c1c(C)[nH]c(/C(C)=N/O)c1C` the “activity change, negative = inhibition” value was inactive: 0.455%.
For `O=C(Nc1ccc(-c2nc3cc(NC(=O)c4cccs4)ccc3o2)cc1)c1cccs1`, the activity change, negative = inhibition was inconclusive: -7.72%.
With `CCc1nn(-c2ccccc2)c(N)c1-c1ccc(OC)c(OC)c1` the activity change, negative = inhibition was inconclusive: -18.8%.
In the case of `CC(=O)c1c(C)[nH]c(C(=O)N2CCN(C(=O)c3ccco3)CC2)c1C`, the activity change, negative = inhibition is reported as inconclusive: 0.646%.
In the case of `CCOC(=O)c1cc(-c2cccnc2)nn1-c1ccccn1`, the activity change, negative = inhibition is reported as inconclusive: -1.14%.
In the case of `Nc1nc(-c2cc3ccccc3o2)cs1`, the Potency is reported as inconclusive: 7.08 µM [rising, partial curve, poor fit].
For `O=C1C2C3C=CC(C4CC34)C2C(=O)N1/N=C/c1ccc(-c2ccccc2[N+](=O)[O-])o1` (configuration not stated), the activity change, negative = inhibition was inconclusive: 10.2%.
In the case of `CCCC(NCC(=O)Nc1cc(S(=O)(=O)N2CCOCC2)ccc1OC)c1ccccc1` (configuration not stated), the “activity change, negative = inhibition” value is reported as inactive: -0.81%.
With `O=C(NC(=S)N1CCN(C/C=C/c2ccccc2)CC1)c1ccco1` the activity change, negative = inhibition was inconclusive: -1.42%.
For `Cc1cc(F)ccc1S(=O)(=O)Nc1ccc(C(=O)N2CCCCCC2)cc1`, the “activity change, negative = inhibition” value was inactive: -3.07%.
In the case of `O=C(NCc1ccco1)c1cnccn1`, the Potency is reported as inconclusive: 20 µM [falling, single point].
In the case of `CCCOc1ccc(C(=O)NCC(c2cccs2)N(C)C)cc1` (configuration not stated), the activity change, negative = inhibition is reported as inconclusive: 3.76%.
With `COc1ccc(C=C2C(=O)OC(C)(C)OC2=O)cc1OC` the “activity change, negative = inhibition” value was inactive: 0.633%.
With `Cc1nnsc1NC(=O)OCc1ccc(Cl)cc1Cl` the “activity change, negative = inhibition” value was inactive: 1.2%.
In the case of `Cc1cc(NC(=O)CSCC(=O)OCC(=O)Nc2cc(C)c(C)cc2[N+](=O)[O-])no1`, the activity change, negative = inhibition is reported as inconclusive: 6.03%.
In the case of `O=C(Oc1ccccc1C(=O)Nc1ccccc1)c1ccc(Br)c([N+](=O)[O-])c1`, the Potency is reported as inconclusive: 23.1 µM [falling, single point].
In the case of `CCCCNC(=O)Cc1ccc(Br)cc1`, the activity change, negative = inhibition is reported as inconclusive: 22%.
For `O=S(=O)(c1cccc(NC(=S)N2CCN(c3ccc(F)cc3)CC2)c1)C(F)F`, the activity change, negative = inhibition was inconclusive: -12.5%.
With `O=[N+]([O-])c1cccc(/C=N/NC2=NCCCCC2)c1` the Potency was inconclusive: 29.1 µM [falling, single point].
In the case of `Cn1c(C(=O)O)cc2cc(Oc3ccccc3)ccc21`, the “activity change, negative = inhibition” value is reported as inactive: 2.12%.
For `Cc1ccc2nc(C3CCN(C(=O)c4ccco4)CC3)[nH]c2c1`, the activity change, negative = inhibition was inconclusive: -0.112%.
For `CCn1cc(S(=O)(=O)CC(=O)Nc2cc(C)on2)c2ccccc21`, the Potency was inconclusive: 22.4 µM [falling, single point].
For `O=C(Nc1cccc([N+](=O)[O-])c1)c1ccc2snnc2c1`, the activity change, negative = inhibition was inconclusive: 1.82%.
With `COc1ccc(Cn2c(=O)sc3ccccc3c2=O)cc1` the Potency was inconclusive: 35.5 µM [falling, single point].
For `CCOc1ccc(C(=O)NCC(=O)OCC(=O)Nc2nnc(-c3ccccc3)o2)cc1`, the “activity change, negative = inhibition” value was inactive: 4.57%.
For `Cc1cc(C(c2nnnn2Cc2ccccc2)N2CCOCC2)c(C)n1-c1ccc2c(c1)OCO2` (configuration not stated), the Potency was inconclusive: 20 µM [falling, partial curve, poor fit].
With `CC(CCc1ccccc1)NC(=O)CNC(=O)c1ccccc1Br` (configuration not stated) the “activity change, negative = inhibition” value was inactive: 1.35%.
With `CC12CCC(=O)N1C(C(=O)Nc1nc3c(F)cc(F)cc3s1)CS2` (configuration not stated) the activity change, negative = inhibition was inconclusive: -1.24%.
For `COc1cccc(CNC(=O)CCN2C(=S)NC(C)(C)CC2C)c1` (configuration not stated), the activity change, negative = inhibition was inconclusive: -8.89%.
With `CCCc1nc(N)c(C#N)c(-c2cccnc2)c1CC` the activity change, negative = inhibition was inconclusive: 14.2%.
With `O=C(Nc1ccc(Br)cc1)c1cccnc1N1CCCCC1` the activity change, negative = inhibition was inconclusive: 20.1%.
In the case of `CC(=O)Nc1ccc(S(=O)(=O)N(C)CC(=O)OCC(=O)N2CC(C)OC(C)C2)cc1` (configuration not stated), the Potency is reported as inconclusive: 20.6 µM [rising, partial curve, poor fit].
With `O=C(O)/C=C\C(=O)Nc1ccc(N2CCN(c3ccc(Cl)c(Cl)c3)CC2)cc1` the “activity change, negative = inhibition” value was inactive: -0.141%.
With `Cc1nc2cccc(C)n2c(=O)c1Cl` the activity change, negative = inhibition was inconclusive: -0.375%.
With `CCn1c(SCc2cccc(F)c2)nc2c(c1=O)SCC2` the activity change, negative = inhibition was inconclusive: 9.97%.
With `O=C(NCc1ccc2c(c1)CCO2)Nc1ccccc1` the Potency was inconclusive: 10 µM [falling, partial curve].
With `CC(=O)O/N=C(\N)c1ccc(-c2csnn2)cc1` the activity change, negative = inhibition was inconclusive: 12.2%.
In the case of `Cc1cccc(C(=O)N2CCCC(Nc3ccc(C)c(C)c3)C2)n1` (configuration not stated), the activity change, negative = inhibition is reported as inconclusive: -0.285%.
In the case of `CCCCNC(=O)NS(=O)(=O)c1cnccc1Sc1ccc(Cl)cc1`, the activity change, negative = inhibition is reported as inconclusive: 0.365%.
With `c1ccc2c(c1)Nc1ccncc1S2` the Potency was inconclusive: 12.6 µM [rising, single point].
In the case of `O=C(/C=C/c1cccc([N+](=O)[O-])c1)c1cccs1`, the “activity change, negative = inhibition” value is reported as inactive: -12.5%.
For `O=C1c2ccccc2C2=Nc3ccccc3SC(c3ccccc3F)C12` (configuration not stated), the activity change, negative = inhibition was inconclusive: 14.4%.
In the case of `COc1ccc(-c2cc(C(=O)OCC(=O)c3c(N)n(C)c(=O)n(C)c3=O)c3ccccc3n2)cc1`, the “activity change, negative = inhibition” value is reported as inactive: -0.543%.
With `CC(=O)N[C@@H](C)c1nc2ccccc2n1CCCN1CCN(c2nc(-c3ccc(C)cc3)cs2)CC1` the activity change, negative = inhibition was inconclusive: 1.5%.
In the case of `COc1ccc(C(=O)C2CCCN(S(=O)(=O)c3cccc(C)c3)C2)c(C)c1` (configuration not stated), the activity change, negative = inhibition is reported as inconclusive: -15%.
In the case of `CCCC(=O)Nc1ccc(NC(=O)C2CC2)cn1`, the activity change, negative = inhibition is reported as inconclusive: 3.09%.
With `Cc1cccc2nc(CSc3nc4[nH]ncc4c(=O)n3-c3cccc(Cl)c3)cc(=O)n12` the Potency was inconclusive: 20.6 µM [falling, partial curve, poor fit].
For `Cc1ccc(S(=O)(=O)N(C)CC(=O)Nc2ccc(C)cn2)cc1`, the activity change, negative = inhibition was inconclusive: 3.41%.
In the case of `O=C(Nc1ccc2c(c1)OCCO2)C1CCN(S(=O)(=O)c2cccs2)CC1`, the activity change, negative = inhibition is reported as inconclusive: 5.17%.
For `O=C(CN(C(=O)CCC(=O)Nc1nccs1)c1ccc(F)cc1)NCCc1ccccc1`, the activity change, negative = inhibition was inconclusive: -2.64%.
With `N=c1c(C(=O)NCC2CCCO2)cc2c(=O)n3ccccc3nc2n1C1CCCCC1` (configuration not stated) the “activity change, negative = inhibition” value was inactive: -14.3%.
In the case of `Cc1sc2nc(CSCC(=O)N(C)CC(=O)Nc3ccc(F)cc3)[nH]c(=O)c2c1C`, the activity change, negative = inhibition is reported as inconclusive: -28.5%.
For `CC(=NCc1ccco1)c1c(C)[nH]n(-c2nc3ccccc3s2)c1=O`, the Potency was inconclusive: 25.1 µM [falling, partial curve, poor fit].
For `COc1ccc(Cl)cc1NC(=O)C(C)N1CCN(C/C=C/c2ccccc2)CC1` (configuration not stated), the Potency was inconclusive: 6.51 µM [falling, full curve].
For `Cc1ccc(S(=O)(=O)N2CCC(C(=O)Nc3ccc4c(c3)COC4=O)CC2)cc1`, the activity change, negative = inhibition was inconclusive: -4.52%.
With `COc1ccc(-c2cc(-c3ccccc3)c(C#N)c(SCC(=O)Nc3ncc(C)s3)n2)cc1` the “activity change, negative = inhibition” value was inactive: -0.265%.
With `Cn1c(=O)c(=O)n(C)c2cc([N+](=O)[O-])c([N+](=O)[O-])cc21` the activity change, negative = inhibition was inconclusive: 14.7%.
In the case of `CCOc1ccc(C(=O)OCCN(C)C)cc1`, the activity change, negative = inhibition is reported as inconclusive: -0.259%.
In the case of `O=C(COC(=O)C1CC2C=CC1C2)Nc1ccccc1F` (configuration not stated), the Potency is reported as inconclusive: 15.8 µM [falling, single point].
In the case of `O=C(Nc1nnc(-c2ccc(Cl)cc2)o1)c1ccc(N2C(=O)CCC2=O)cc1`, the Potency is reported as inconclusive: 4.11 µM [falling, partial curve, poor fit].
In the case of `O=C(NNC(=S)NC(=O)c1ccccc1)c1cccc([N+](=O)[O-])c1`, the Potency is reported as inconclusive: 35.5 µM [falling, partial curve, poor fit].
In the case of `COc1ccc(OC)c(Nc2nc(NCCCN(C)C)nc(N)c2[N+](=O)[O-])c1`, the activity change, negative = inhibition is reported as inconclusive: 1.48%.
With `COc1cc(/C=N/NC(=S)NC2CC3CCC2C3)ccc1O` (configuration not stated) the Potency was inconclusive: 31.6 µM [cytotoxic, partial curve].
For `COC(=O)Cc1cc(=O)n2[nH]c(C)nc2n1`, the activity change, negative = inhibition was inconclusive: 3.67%.
For `O=C(O)c1ccc(COc2ccccc2/C=C2\NC(=O)N(Cc3ccc(F)cc3)C2=O)cc1`, the “activity change, negative = inhibition” value was inactive: -0.342%.
In the case of `CCNC(=S)NC1CC2CCC(C1)N2Cc1ccccc1` (configuration not stated), the “activity change, negative = inhibition” value is reported as inactive: -0.356%.
In the case of `COC(=O)c1cc(Br)c(=O)n(-c2ccc(F)cc2)c1`, the Potency is reported as inconclusive: 1.46 µM [falling, full curve, poor fit].
With `O[C@@H]1CN(Cc2ccc(-n3cccn3)cc2)CC[C@H]1N1CCN(c2ccccc2F)CC1` the “activity change, negative = inhibition” value was inactive: -0.142%.
In the case of `CCN(C(=O)CSc1nc2n[nH]c(C)c2c(=N)n1-c1cccc(OC)c1)c1cccc(C)c1`, the activity change, negative = inhibition is reported as inconclusive: -3.37%.

Reference: PubChem BioAssay AID493014 (National Center for Advancing Translational Sciences (NCATS), 2011)
Potency is read from the fitted curve at half-maximal effect.
